According to the supplement of paper PMC4604168 (melanoma cell lines):
Some of the results follow. Many values rest on one well or one pass, so single values are uncertain.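 Cells were imaged in 1,536-well plates, and nuclei stained with an antibody against cleaved PARP were counted against all DNA-stained nuclei to give the apoptosis fraction. Screening doses were chosen to leave most cells alive, and resting and induced cleaved-PARP levels differ strongly between cell lines.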

Key:
Experiment in all cases: cleaved PARP positive nuclei fraction relative to DMSO control; melanoma cells; higher = more apoptosis
Conditions in all cases: library dose: low library concentration; 72 h
MZ2-MEL = tested on: MZ2-MEL
MeWo = tested on: MeWo
RPMI7951 = tested on: RPMI7951
RVH-421 = tested on: RVH-421
SkMel28 = tested on: SkMel28
SkMel2 = tested on: SkMel2
SkMel30 = tested on: SkMel30
SkMel5 = tested on: SkMel5
UACC257 = tested on: UACC257
UACC62 = tested on: UACC62
WM115 = tested on: WM115
WM1716 = tested on: WM1716
WM1745 = tested on: WM1745
WM3526 = tested on: WM3526
WM3619 = tested on: WM3619
WM451Lu = tested on: WM451Lu

## CCCCCCCCc1ccc(CCC(N)(CO)CO)cc1 [fingolimod] + OCCn1cc(-c2cnc3nnn(Cc4ccc5ncccc5c4)c3n2)cn1 [PF04217903] (first compound 2 µM, partner dose 1 µM)
MZ2-MEL
  cleaved PARP positive nuclei fraction: 233%
MeWo
  cleaved PARP positive nuclei fraction: 34.6%
RPMI7951
  cleaved PARP positive nuclei fraction: 68.9%
RVH-421
  cleaved PARP positive nuclei fraction: 53.3%
SkMel28
  cleaved PARP positive nuclei fraction: 605%
SkMel2
  cleaved PARP positive nuclei fraction: 88.8%
SkMel30
  cleaved PARP positive nuclei fraction: 70.1%
SkMel5
  cleaved PARP positive nuclei fraction: 126%
UACC257
  cleaved PARP positive nuclei fraction: 33.8%
UACC62
  cleaved PARP positive nuclei fraction: 237%
WM115
  cleaved PARP positive nuclei fraction: 48.4%
WM1716
  cleaved PARP positive nuclei fraction: 144%
WM1745
  cleaved PARP positive nuclei fraction: 129%
WM3526
  cleaved PARP positive nuclei fraction: 74.6%
WM3619
  cleaved PARP positive nuclei fraction: 105%
WM451Lu
  cleaved PARP positive nuclei fraction: 43.7%

## Cn1sc(=O)n(Cc2ccccc2)c1=O + Cc1ccc(NC(=O)c2cccc(N(C)C)c2)cc1NC(=O)c1ccc(O)cc1 [ZM336372] (first compound 0.4 µM, partner dose 2 µM)
MZ2-MEL
  cleaved PARP positive nuclei fraction: 135%
MeWo
  cleaved PARP positive nuclei fraction: 60.6%
RPMI7951
  cleaved PARP positive nuclei fraction: 124%
RVH-421
  cleaved PARP positive nuclei fraction: 133%
SkMel28
  cleaved PARP positive nuclei fraction: 59.5%
SkMel2
  cleaved PARP positive nuclei fraction: 102%
SkMel30
  cleaved PARP positive nuclei fraction: 176%
SkMel5
  cleaved PARP positive nuclei fraction: 111%
UACC257
  cleaved PARP positive nuclei fraction: 181%
UACC62
  cleaved PARP positive nuclei fraction: 145%
WM115
  cleaved PARP positive nuclei fraction: 81.2%
WM1716
  cleaved PARP positive nuclei fraction: 166%
WM1745
  cleaved PARP positive nuclei fraction: 99.2%
WM3526
  cleaved PARP positive nuclei fraction: 353%
WM3619
  cleaved PARP positive nuclei fraction: 106%
WM451Lu
  cleaved PARP positive nuclei fraction: 55.9%

## C[C@]1(O)C[C@@H](c2nc(-c3ccc4ccc(-c5ccccc5)nc4c3)c3c(N)nccn32)C1 + O=S(=O)(c1ccccc1)N(CC(F)(F)F)c1ccc(C(O)(C(F)(F)F)C(F)(F)F)cc1 [T0901317] (first compound 0.4 µM, partner dose 1.4 µM)
MZ2-MEL
  cleaved PARP positive nuclei fraction: 43.9%
MeWo
  cleaved PARP positive nuclei fraction: 37.6%
RPMI7951
  cleaved PARP positive nuclei fraction: 51.3%
RVH-421
  cleaved PARP positive nuclei fraction: 29.1%
SkMel28
  cleaved PARP positive nuclei fraction: 283%
SkMel2
  cleaved PARP positive nuclei fraction: 88.8%
SkMel30
  cleaved PARP positive nuclei fraction: 95.3%
SkMel5
  cleaved PARP positive nuclei fraction: 85.5%
UACC257
  cleaved PARP positive nuclei fraction: 324%
UACC62
  cleaved PARP positive nuclei fraction: 136%
WM115
  cleaved PARP positive nuclei fraction: 198%
WM1716
  cleaved PARP positive nuclei fraction: 36.9%
WM1745
  cleaved PARP positive nuclei fraction: 121%
WM3526
  cleaved PARP positive nuclei fraction: 95.5%
WM3619
  cleaved PARP positive nuclei fraction: 89.9%
WM451Lu
  cleaved PARP positive nuclei fraction: 166%

## C[C@]1(O)C[C@@H](c2nc(-c3ccc4ccc(-c5ccccc5)nc4c3)c3c(N)nccn32)C1 + CC(C)CCN1c2nc(Nc3cc(F)c(O)c(F)c3)ncc2N(C)C(=O)C1C [BID1870] (first compound 0.4 µM, partner dose 0.2 µM)
MZ2-MEL
  cleaved PARP positive nuclei fraction: 217%
MeWo
  cleaved PARP positive nuclei fraction: 92.4%
RPMI7951
  cleaved PARP positive nuclei fraction: 148%
RVH-421
  cleaved PARP positive nuclei fraction: 31.4%
SkMel28
  cleaved PARP positive nuclei fraction: 174%
SkMel2
  cleaved PARP positive nuclei fraction: 99%
SkMel30
  cleaved PARP positive nuclei fraction: 104%
SkMel5
  cleaved PARP positive nuclei fraction: 300%
UACC257
  cleaved PARP positive nuclei fraction: 177%
UACC62
  cleaved PARP positive nuclei fraction: 75.2%
WM115
  cleaved PARP positive nuclei fraction: 460%
WM1716
  cleaved PARP positive nuclei fraction: 144%
WM1745
  cleaved PARP positive nuclei fraction: 118%
WM3526
  cleaved PARP positive nuclei fraction: 255%
WM3619
  cleaved PARP positive nuclei fraction: 86.5%
WM451Lu
  cleaved PARP positive nuclei fraction: 43.2%

## NC(=O)c1ccc(N(C(N)=O)c2c(F)cccc2F)nc1-c1ccc(F)cc1F + O=C1NC(=O)/C(=C/c2ccc(-c3ccc(F)cc3O)o2)S1 [AS252424] (first compound 0.4 µM, partner dose 1 µM)
MZ2-MEL
  cleaved PARP positive nuclei fraction: 64.5%
MeWo
  cleaved PARP positive nuclei fraction: 65.4%
RPMI7951
  cleaved PARP positive nuclei fraction: 94.3%
RVH-421
  cleaved PARP positive nuclei fraction: 70.1%
SkMel28
  cleaved PARP positive nuclei fraction: 131%
SkMel2
  cleaved PARP positive nuclei fraction: 111%
SkMel30
  cleaved PARP positive nuclei fraction: 84.3%
SkMel5
  cleaved PARP positive nuclei fraction: 160%
UACC257
  cleaved PARP positive nuclei fraction: 235%
UACC62
  cleaved PARP positive nuclei fraction: 144%
WM115
  cleaved PARP positive nuclei fraction: 122%
WM1716
  cleaved PARP positive nuclei fraction: 206%
WM1745
  cleaved PARP positive nuclei fraction: 97.4%
WM3526
  cleaved PARP positive nuclei fraction: 204%
WM3619
  cleaved PARP positive nuclei fraction: 86.2%
WM451Lu
  cleaved PARP positive nuclei fraction: 32.2%

## C[C@]1(O)C[C@@H](c2nc(-c3ccc4ccc(-c5ccccc5)nc4c3)c3c(N)nccn32)C1 + CCN(CC)CCCCNc1ncc2cc(-c3cc(OC)cc(OC)c3)c(NC(=O)NC(C)(C)C)nc2n1 [PD173074] (first compound 0.4 µM, partner dose 0.1 µM)
MZ2-MEL
  cleaved PARP positive nuclei fraction: 53%
MeWo
  cleaved PARP positive nuclei fraction: 204%
RPMI7951
  cleaved PARP positive nuclei fraction: 152%
RVH-421
  cleaved PARP positive nuclei fraction: 20.9%
SkMel28
  cleaved PARP positive nuclei fraction: 75.8%
SkMel2
  cleaved PARP positive nuclei fraction: 83.6%
SkMel30
  cleaved PARP positive nuclei fraction: 161%
SkMel5
  cleaved PARP positive nuclei fraction: 214%
UACC257
  cleaved PARP positive nuclei fraction: 68.2%
UACC62
  cleaved PARP positive nuclei fraction: 38.1%
WM115
  cleaved PARP positive nuclei fraction: 121%
WM1716
  cleaved PARP positive nuclei fraction: 182%
WM1745
  cleaved PARP positive nuclei fraction: 114%
WM3526
  cleaved PARP positive nuclei fraction: 141%
WM3619
  cleaved PARP positive nuclei fraction: 89.5%
WM451Lu
  cleaved PARP positive nuclei fraction: 137%

## CC(=O)O[C@@]12CO[C@@H]1C[C@H](O)[C@@]1(C)C(=O)[C@H](O)C3=C(C)[C@@H](OC(=O)[C@H](O)[C@@H](NC(=O)OC(C)(C)C)c4ccccc4)C[C@@](O)([C@@H](OC(=O)c4ccccc4)[C@H]21)C3(C)C [Docetaxel] + O=C(CCCCCCC(=O)Nc1ccccc1)NO [vorinostat] (first compound 0.0001 µM, partner dose 0.08 µM)
MZ2-MEL
  cleaved PARP positive nuclei fraction: 897%
MeWo
  cleaved PARP positive nuclei fraction: 871%
RPMI7951
  cleaved PARP positive nuclei fraction: 179%
RVH-421
  cleaved PARP positive nuclei fraction: 105%
SkMel28
  cleaved PARP positive nuclei fraction: 303%
SkMel2
  cleaved PARP positive nuclei fraction: 917%
SkMel30
  cleaved PARP positive nuclei fraction: 220%
SkMel5
  cleaved PARP positive nuclei fraction: 73.3%
UACC257
  cleaved PARP positive nuclei fraction: 841%
UACC62
  cleaved PARP positive nuclei fraction: 234%
WM115
  cleaved PARP positive nuclei fraction: 104%
WM1716
  cleaved PARP positive nuclei fraction: 694%
WM1745
  cleaved PARP positive nuclei fraction: 167%
WM3526
  cleaved PARP positive nuclei fraction: 126%
WM3619
  cleaved PARP positive nuclei fraction: 119%
WM451Lu
  cleaved PARP positive nuclei fraction: 236%

## CN(c1ncccc1CNc1nc(Nc2ccc3c(c2)CC(=O)N3)ncc1C(F)(F)F)S(C)(=O)=O + COc1cc(Nc2ncc(F)c(Nc3ccc4c(n3)NC(=O)C(C)(C)O4)n2)cc(OC)c1OC [Tamatinib] (first compound 0.08 µM, partner dose 0.4 µM)
MZ2-MEL
  cleaved PARP positive nuclei fraction: 239%
MeWo
  cleaved PARP positive nuclei fraction: 54.2%
RPMI7951
  cleaved PARP positive nuclei fraction: 296%
RVH-421
  cleaved PARP positive nuclei fraction: 132%
SkMel28
  cleaved PARP positive nuclei fraction: 73.4%
SkMel2
  cleaved PARP positive nuclei fraction: 84.7%
SkMel30
  cleaved PARP positive nuclei fraction: 77.1%
SkMel5
  cleaved PARP positive nuclei fraction: 72.1%
UACC257
  cleaved PARP positive nuclei fraction: 140%
UACC62
  cleaved PARP positive nuclei fraction: 140%
WM115
  cleaved PARP positive nuclei fraction: 116%
WM1716
  cleaved PARP positive nuclei fraction: 134%
WM1745
  cleaved PARP positive nuclei fraction: 195%
WM3526
  cleaved PARP positive nuclei fraction: 112%
WM3619
  cleaved PARP positive nuclei fraction: 110%
WM451Lu
  cleaved PARP positive nuclei fraction: 163%

## CC1(C)CCC(c2ccc(Cl)cc2)=C(CN2CCN(c3ccc(C(=O)NS(=O)(=O)c4ccc(N[C@H](CCN5CCOCC5)CSc5ccccc5)c(S(=O)(=O)C(F)(F)F)c4)cc3)CC2)C1 + O=C(O)C(=O)Nc1sc2c(c1C(=O)O)CCNC2 [TCS401] (first compound 0.4 µM, partner dose 1.66667 µM)
MZ2-MEL
  cleaved PARP positive nuclei fraction: 355%
MeWo
  cleaved PARP positive nuclei fraction: 166%
RPMI7951
  cleaved PARP positive nuclei fraction: 113%
RVH-421
  cleaved PARP positive nuclei fraction: 251%
SkMel28
  cleaved PARP positive nuclei fraction: 53.8%
SkMel2
  cleaved PARP positive nuclei fraction: 168%
SkMel30
  cleaved PARP positive nuclei fraction: 153%
SkMel5
  cleaved PARP positive nuclei fraction: 234%
UACC257
  cleaved PARP positive nuclei fraction: 47.7%
UACC62
  cleaved PARP positive nuclei fraction: 99.6%
WM115
  cleaved PARP positive nuclei fraction: 234%
WM1716
  cleaved PARP positive nuclei fraction: 41%
WM1745
  cleaved PARP positive nuclei fraction: 1170%
WM3526
  cleaved PARP positive nuclei fraction: 170%
WM3619
  cleaved PARP positive nuclei fraction: 107%
WM451Lu
  cleaved PARP positive nuclei fraction: 124%

## CCCCCCCCc1ccc(CCC(N)(CO)CO)cc1 [fingolimod] + COc1cc2c(Oc3ccc4[nH]c(C)cc4c3F)ncnc2cc1OCCCN1CCCC1 [cediranib] (first compound 2 µM, partner dose 0.4 µM)
MZ2-MEL
  cleaved PARP positive nuclei fraction: 41%
MeWo
  cleaved PARP positive nuclei fraction: 63.5%
RPMI7951
  cleaved PARP positive nuclei fraction: 92.3%
RVH-421
  cleaved PARP positive nuclei fraction: 37.8%
SkMel28
  cleaved PARP positive nuclei fraction: 61.9%
SkMel2
  cleaved PARP positive nuclei fraction: 98.2%
SkMel30
  cleaved PARP positive nuclei fraction: 145%
SkMel5
  cleaved PARP positive nuclei fraction: 99.1%
UACC257
  cleaved PARP positive nuclei fraction: 74.7%
UACC62
  cleaved PARP positive nuclei fraction: 151%
WM115
  cleaved PARP positive nuclei fraction: 96.7%
WM1716
  cleaved PARP positive nuclei fraction: 101%
WM1745
  cleaved PARP positive nuclei fraction: 112%
WM3526
  cleaved PARP positive nuclei fraction: 120%
WM3619
  cleaved PARP positive nuclei fraction: 80.7%
WM451Lu
  cleaved PARP positive nuclei fraction: 49.4%
